The M2OR odorant receptor database
Only a part is listed here, and it is no random draw. The calls were merged from several studies; some rest on single wells. The list shows a part of the results.

Legend:
Conditions in all cases: stereoisomer not certain
OR6K2 (Homo sapiens) = molecular target: T1, OR6K2 (Homo sapiens) (UniProt Q8NGY2)
T1 sequence (whole entry): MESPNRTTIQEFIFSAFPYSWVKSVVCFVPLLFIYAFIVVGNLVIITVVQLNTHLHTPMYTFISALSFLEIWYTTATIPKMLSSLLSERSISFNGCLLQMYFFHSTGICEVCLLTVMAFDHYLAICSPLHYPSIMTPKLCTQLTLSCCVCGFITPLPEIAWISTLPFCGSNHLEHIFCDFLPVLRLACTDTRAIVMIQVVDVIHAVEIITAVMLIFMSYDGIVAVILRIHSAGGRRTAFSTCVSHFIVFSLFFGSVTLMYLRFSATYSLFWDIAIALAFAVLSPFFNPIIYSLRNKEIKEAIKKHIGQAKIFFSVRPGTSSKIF
In short: (§1)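 Each entry records the cell line, G-protein, co-transfected protein and tags used. Methods varied with the source, often transient luciferase assays in mammalian cell lines. A receptor–molecule pair is called responsive (active) if the original authors judged its signal statistically different from baseline and non-responsive (inactive) otherwise.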

OR6K3 [1] = test system: T2, OR6K3
T2 sequence (whole entry): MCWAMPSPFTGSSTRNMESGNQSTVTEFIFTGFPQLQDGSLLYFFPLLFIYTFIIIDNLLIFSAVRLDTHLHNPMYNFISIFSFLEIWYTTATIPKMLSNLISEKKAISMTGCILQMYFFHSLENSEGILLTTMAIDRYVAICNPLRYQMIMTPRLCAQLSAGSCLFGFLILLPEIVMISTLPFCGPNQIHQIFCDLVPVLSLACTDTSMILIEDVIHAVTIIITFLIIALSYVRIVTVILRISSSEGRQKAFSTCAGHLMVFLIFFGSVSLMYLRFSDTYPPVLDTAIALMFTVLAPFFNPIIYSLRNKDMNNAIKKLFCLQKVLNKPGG
In short: as §1

OR6K3 [2] = test system: T3, OR6K3; remark: listed apart in the source
T3 sequence (whole entry): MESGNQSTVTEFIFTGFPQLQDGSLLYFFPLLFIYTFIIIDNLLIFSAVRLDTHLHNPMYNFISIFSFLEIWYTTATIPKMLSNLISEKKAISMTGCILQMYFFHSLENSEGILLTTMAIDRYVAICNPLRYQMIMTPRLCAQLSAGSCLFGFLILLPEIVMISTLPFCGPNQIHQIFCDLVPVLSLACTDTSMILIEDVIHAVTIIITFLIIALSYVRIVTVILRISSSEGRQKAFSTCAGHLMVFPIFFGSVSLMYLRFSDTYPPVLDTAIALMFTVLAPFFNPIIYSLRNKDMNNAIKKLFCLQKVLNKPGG
In short: as §1

OR6K6 [3] = test system: T4, OR6K6
T4 sequence (whole entry): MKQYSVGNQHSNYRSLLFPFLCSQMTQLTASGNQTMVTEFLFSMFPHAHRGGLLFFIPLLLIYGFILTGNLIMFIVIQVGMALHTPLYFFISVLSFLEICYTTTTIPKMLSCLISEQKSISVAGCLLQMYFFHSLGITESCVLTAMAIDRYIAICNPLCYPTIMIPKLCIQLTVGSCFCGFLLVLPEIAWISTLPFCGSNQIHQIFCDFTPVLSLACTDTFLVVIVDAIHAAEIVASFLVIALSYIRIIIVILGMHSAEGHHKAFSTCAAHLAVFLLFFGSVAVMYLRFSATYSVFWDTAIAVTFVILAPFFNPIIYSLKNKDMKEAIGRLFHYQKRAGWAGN
In short: as §1

OR6K6 [4] = test system: T5, OR6K6; remark: listed apart in the source
T5 sequence (whole entry): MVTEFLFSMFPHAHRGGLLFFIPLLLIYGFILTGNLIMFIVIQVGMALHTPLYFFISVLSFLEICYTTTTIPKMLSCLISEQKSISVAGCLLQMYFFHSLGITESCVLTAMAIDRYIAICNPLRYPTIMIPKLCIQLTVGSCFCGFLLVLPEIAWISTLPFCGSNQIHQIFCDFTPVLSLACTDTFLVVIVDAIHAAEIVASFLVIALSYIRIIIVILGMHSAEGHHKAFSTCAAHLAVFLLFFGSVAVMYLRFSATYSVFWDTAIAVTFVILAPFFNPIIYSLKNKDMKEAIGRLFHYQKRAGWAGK
In short: as §1

OR6M1 (Homo sapiens) = molecular target: T6, OR6M1 (Homo sapiens) (UniProt Q8NGM8)
T6 sequence (whole entry): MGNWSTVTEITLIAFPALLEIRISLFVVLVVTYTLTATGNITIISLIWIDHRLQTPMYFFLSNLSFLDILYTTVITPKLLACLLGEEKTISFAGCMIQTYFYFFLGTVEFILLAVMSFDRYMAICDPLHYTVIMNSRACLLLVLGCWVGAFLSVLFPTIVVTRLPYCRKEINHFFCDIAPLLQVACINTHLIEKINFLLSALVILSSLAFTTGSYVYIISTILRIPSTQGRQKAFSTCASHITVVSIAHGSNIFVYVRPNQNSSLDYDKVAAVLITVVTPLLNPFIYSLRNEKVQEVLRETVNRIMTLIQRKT
In short: as §1

OR6N1 = test system: T7, OR6N1
T7 sequence (whole entry): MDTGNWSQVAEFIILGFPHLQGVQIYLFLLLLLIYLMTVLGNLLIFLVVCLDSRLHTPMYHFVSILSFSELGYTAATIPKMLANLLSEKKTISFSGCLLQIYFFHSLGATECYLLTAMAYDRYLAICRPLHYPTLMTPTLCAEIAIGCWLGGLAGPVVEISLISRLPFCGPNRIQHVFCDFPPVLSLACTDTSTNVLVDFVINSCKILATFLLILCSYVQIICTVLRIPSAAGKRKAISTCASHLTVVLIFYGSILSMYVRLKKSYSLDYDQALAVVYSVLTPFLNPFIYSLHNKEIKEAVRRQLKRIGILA
In short: as §1

OR6N2 (Homo sapiens) = molecular target: T8, OR6N2 (Homo sapiens) (UniProt Q8NGY6)
T8 sequence (whole entry): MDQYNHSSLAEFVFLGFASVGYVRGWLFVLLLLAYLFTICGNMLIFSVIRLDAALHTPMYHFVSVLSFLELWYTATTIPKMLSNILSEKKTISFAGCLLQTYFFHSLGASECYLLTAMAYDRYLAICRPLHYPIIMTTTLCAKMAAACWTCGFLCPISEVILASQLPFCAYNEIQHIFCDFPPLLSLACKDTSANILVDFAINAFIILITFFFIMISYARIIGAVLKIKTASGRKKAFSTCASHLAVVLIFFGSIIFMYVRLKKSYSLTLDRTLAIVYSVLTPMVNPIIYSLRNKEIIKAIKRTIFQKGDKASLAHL
In short: as §1

OR6P1 (Homo sapiens) = molecular target: T9, OR6P1 (Homo sapiens) (UniProt Q8NGX9)
T9 sequence (whole entry): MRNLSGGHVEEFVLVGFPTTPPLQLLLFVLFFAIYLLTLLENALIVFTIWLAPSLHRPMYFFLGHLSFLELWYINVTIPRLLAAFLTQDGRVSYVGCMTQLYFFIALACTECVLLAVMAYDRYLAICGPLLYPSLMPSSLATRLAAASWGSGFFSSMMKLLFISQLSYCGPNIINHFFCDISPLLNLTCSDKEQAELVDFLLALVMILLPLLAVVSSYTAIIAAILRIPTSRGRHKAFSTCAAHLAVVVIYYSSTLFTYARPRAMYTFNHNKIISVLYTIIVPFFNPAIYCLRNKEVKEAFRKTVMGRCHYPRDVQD
In short: as §1

OR6Q1 (Homo sapiens) = molecular target: T10, OR6Q1 (Homo sapiens) (UniProt Q8NGQ2)
T10 sequence (whole entry): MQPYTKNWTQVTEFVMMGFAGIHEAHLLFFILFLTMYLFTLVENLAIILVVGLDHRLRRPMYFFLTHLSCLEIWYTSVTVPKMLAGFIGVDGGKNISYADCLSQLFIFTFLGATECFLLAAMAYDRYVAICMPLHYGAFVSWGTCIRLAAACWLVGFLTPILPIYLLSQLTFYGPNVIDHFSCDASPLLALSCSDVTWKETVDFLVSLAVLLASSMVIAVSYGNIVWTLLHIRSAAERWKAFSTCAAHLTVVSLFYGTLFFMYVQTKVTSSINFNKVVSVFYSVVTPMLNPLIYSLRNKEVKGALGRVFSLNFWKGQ
In short: as §1

Measured: odorant receptor agonist call

CCCCOC(C)=O
inactive: all assays above

CS
inactive: all assays above

CCC(C)=O
inactive: all assays above
